Results are given in words; binding and its absence hold for the method and conditions named. In cells and extracts the contact can be indirect. Here binding means that the protein was enriched with, or labelled near, the bait; the list need not be complete. For part of these data: A no says only that the protein was not detected with the bait.
T1: PCGF2 (human (endogenous in NT2)) (UniProt P35227)
T1 sequence: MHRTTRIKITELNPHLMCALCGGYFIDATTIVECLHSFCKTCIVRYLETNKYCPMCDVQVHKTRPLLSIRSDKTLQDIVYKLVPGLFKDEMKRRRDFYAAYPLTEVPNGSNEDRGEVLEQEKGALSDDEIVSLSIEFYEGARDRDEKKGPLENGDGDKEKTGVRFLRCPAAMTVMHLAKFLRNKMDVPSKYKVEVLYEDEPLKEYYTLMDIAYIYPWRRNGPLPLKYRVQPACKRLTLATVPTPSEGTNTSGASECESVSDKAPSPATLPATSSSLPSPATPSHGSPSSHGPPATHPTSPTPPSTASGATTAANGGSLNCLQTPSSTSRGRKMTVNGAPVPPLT

Amino acid sequences for entries named in this document (tags omitted).
UniProt Q9BSM1: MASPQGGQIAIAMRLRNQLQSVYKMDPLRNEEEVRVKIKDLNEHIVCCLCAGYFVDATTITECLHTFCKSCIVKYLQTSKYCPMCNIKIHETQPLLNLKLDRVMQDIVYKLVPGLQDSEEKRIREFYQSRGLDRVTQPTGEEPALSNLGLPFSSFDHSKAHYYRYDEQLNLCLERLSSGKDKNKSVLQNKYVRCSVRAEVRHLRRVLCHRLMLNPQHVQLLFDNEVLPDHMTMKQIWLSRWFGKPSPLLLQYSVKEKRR
UniProt P35226: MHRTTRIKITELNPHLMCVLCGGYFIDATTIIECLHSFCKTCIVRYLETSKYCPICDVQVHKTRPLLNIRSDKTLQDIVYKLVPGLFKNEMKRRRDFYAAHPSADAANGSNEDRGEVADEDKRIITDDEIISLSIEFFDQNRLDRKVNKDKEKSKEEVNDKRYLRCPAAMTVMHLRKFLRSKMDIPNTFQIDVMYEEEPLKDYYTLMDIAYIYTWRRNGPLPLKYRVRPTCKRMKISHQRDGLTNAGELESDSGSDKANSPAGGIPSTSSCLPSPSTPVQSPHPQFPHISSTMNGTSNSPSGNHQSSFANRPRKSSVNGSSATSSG
UniProt Q6W2J9: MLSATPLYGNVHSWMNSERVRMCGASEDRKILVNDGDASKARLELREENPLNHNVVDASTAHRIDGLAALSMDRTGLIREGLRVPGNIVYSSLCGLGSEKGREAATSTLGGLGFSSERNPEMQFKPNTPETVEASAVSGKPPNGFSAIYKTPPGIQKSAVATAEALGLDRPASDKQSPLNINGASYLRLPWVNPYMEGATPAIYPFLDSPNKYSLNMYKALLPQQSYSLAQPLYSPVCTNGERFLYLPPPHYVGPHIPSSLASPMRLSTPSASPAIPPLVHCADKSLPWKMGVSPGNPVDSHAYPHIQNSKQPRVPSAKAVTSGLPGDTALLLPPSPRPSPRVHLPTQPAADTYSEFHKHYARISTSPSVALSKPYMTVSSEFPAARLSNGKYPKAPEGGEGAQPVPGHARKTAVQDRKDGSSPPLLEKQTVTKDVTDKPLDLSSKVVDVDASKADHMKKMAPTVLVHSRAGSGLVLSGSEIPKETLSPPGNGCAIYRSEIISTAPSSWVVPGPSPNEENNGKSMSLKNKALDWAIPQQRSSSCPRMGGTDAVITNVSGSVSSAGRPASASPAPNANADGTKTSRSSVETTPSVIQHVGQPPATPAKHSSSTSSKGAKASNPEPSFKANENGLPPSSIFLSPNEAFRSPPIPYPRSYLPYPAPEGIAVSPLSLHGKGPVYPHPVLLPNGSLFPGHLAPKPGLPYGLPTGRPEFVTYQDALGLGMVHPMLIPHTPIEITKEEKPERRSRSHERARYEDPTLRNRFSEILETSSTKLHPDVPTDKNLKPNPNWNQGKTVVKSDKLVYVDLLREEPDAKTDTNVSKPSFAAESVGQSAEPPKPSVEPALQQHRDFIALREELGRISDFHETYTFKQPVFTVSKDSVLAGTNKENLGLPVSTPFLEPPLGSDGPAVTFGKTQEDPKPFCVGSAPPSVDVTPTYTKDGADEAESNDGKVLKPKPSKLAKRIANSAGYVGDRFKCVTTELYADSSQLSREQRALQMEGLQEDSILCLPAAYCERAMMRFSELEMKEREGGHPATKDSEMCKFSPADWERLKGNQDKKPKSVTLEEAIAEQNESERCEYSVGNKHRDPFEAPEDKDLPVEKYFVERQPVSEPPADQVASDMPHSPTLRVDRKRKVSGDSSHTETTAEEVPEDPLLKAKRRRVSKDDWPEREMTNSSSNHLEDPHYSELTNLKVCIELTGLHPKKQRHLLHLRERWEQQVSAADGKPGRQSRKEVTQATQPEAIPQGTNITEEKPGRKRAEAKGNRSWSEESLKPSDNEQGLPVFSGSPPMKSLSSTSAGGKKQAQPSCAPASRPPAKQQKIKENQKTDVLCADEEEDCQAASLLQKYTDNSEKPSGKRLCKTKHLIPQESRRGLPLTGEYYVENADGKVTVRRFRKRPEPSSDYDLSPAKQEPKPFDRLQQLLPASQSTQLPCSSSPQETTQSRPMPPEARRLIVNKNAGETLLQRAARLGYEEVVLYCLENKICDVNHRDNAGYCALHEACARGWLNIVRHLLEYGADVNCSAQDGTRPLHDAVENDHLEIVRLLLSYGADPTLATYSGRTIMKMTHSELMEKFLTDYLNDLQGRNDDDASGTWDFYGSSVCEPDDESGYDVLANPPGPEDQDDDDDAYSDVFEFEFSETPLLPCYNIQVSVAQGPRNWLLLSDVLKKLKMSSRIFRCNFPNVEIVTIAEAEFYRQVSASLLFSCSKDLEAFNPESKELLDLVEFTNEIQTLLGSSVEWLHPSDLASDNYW
UniProt Q14781: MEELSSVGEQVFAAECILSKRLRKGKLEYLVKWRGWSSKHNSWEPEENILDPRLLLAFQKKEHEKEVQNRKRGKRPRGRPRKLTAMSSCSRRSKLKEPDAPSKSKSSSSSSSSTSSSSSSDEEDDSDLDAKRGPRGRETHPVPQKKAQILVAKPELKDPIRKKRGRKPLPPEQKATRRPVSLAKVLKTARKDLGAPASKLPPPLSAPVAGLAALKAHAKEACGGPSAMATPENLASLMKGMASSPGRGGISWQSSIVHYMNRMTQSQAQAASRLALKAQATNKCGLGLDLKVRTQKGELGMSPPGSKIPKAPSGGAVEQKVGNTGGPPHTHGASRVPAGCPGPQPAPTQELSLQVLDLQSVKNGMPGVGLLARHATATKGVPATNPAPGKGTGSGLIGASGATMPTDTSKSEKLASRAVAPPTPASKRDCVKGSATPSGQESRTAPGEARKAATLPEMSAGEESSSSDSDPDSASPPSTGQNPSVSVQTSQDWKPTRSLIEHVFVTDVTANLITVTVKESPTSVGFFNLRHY
UniProt Q9HC52: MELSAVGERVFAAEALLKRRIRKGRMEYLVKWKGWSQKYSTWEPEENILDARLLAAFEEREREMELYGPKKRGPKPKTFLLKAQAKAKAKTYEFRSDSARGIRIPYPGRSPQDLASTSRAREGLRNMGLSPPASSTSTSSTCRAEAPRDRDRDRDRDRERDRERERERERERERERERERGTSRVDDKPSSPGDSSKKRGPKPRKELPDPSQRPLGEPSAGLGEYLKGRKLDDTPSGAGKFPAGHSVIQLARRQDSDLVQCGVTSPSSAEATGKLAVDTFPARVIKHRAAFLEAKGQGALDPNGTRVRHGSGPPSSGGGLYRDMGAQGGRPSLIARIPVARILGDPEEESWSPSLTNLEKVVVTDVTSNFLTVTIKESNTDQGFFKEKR
UniProt P67870: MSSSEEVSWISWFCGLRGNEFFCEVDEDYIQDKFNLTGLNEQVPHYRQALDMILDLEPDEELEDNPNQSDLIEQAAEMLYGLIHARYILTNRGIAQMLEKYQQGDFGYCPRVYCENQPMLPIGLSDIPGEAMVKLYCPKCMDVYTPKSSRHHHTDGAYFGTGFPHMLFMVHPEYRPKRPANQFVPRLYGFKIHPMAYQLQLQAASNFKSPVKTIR
UniProt Q09028: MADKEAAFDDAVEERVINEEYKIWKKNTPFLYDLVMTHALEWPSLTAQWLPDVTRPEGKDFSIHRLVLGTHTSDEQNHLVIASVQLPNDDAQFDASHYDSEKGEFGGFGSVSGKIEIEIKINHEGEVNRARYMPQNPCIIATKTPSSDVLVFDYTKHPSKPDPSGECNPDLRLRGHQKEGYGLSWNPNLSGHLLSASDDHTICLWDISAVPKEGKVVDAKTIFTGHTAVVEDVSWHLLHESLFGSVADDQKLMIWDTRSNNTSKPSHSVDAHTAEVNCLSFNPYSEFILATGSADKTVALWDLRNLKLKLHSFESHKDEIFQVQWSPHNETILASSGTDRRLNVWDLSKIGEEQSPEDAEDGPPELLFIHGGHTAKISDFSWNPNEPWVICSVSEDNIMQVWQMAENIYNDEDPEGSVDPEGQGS
UniProt Q06587: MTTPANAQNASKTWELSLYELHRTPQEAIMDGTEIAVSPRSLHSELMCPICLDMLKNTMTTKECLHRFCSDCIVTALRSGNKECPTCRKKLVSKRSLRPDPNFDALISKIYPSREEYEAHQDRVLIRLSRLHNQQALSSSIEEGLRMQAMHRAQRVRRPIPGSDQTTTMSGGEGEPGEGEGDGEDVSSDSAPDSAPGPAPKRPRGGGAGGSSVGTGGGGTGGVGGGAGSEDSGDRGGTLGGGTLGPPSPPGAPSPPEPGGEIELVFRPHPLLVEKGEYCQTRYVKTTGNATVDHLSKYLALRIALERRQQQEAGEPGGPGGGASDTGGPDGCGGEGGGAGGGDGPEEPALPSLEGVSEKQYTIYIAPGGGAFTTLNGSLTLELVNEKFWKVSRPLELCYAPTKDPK
UniProt Q99496: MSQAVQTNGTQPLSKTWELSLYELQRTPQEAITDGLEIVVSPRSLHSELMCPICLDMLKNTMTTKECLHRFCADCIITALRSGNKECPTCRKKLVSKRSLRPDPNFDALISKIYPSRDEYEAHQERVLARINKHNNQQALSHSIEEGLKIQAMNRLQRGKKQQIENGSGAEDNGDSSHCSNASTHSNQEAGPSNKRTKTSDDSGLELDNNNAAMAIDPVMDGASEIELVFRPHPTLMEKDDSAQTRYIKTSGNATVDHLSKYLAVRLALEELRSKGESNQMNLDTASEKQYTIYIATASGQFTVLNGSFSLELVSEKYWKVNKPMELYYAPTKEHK
UniProt Q9UQR0: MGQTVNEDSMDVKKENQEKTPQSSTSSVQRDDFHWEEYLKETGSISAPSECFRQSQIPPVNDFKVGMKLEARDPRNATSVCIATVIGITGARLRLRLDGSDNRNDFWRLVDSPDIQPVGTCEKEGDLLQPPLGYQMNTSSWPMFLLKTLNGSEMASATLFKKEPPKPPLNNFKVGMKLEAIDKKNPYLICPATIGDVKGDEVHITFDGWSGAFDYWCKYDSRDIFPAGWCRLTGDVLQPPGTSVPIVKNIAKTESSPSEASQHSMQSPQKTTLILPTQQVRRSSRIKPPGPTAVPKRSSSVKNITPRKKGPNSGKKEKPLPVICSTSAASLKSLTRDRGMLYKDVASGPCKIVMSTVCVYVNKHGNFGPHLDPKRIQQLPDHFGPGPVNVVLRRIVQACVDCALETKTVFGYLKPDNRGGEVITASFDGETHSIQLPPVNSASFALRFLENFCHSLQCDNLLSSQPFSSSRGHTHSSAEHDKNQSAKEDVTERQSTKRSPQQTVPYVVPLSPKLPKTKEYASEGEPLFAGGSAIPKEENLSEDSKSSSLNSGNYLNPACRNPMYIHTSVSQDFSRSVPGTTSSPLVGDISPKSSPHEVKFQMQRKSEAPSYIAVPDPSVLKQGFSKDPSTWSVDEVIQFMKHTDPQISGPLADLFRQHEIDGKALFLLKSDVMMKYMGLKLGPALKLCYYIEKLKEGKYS
UniProt Q93009: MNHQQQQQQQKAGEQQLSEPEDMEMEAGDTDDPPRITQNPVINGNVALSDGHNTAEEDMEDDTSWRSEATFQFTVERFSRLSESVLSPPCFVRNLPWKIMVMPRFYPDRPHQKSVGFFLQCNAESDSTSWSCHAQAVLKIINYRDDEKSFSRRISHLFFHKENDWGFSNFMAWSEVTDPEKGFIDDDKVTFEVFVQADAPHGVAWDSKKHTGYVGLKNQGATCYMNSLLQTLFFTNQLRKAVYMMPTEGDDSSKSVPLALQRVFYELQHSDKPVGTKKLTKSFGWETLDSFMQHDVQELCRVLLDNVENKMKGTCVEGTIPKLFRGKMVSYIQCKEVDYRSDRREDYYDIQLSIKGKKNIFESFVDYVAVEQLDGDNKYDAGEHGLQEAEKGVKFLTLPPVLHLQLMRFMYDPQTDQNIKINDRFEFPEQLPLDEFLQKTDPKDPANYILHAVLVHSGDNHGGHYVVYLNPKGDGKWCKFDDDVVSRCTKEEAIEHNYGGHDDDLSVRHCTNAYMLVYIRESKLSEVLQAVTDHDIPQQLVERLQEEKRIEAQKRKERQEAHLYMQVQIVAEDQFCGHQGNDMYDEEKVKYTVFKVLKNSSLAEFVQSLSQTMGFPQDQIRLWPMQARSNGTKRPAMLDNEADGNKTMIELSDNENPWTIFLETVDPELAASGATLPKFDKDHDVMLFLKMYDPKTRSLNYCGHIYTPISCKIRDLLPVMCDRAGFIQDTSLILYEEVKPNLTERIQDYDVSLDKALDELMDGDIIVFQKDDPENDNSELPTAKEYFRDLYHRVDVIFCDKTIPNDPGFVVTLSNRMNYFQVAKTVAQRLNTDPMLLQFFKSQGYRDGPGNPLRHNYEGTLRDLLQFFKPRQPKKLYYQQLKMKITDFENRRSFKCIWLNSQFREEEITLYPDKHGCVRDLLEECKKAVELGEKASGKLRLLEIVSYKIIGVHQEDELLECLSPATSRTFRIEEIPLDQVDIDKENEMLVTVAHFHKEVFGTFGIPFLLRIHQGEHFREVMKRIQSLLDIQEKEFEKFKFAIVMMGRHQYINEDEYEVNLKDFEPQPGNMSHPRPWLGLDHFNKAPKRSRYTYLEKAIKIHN

B1: CBX4 (protein, UniProt O00257 1-560)
chain: MELPAVGEHVFAVESIEKKRIRKGRVEYLVKWRGWSPKYNTWEPEENILDPRLLIAFQNRERQEQLMGYRKRGPKPKPLVVQVPTFARRSNVLTGLQDSSTDNRAKLDLGAQGKGQGHQYELNSKKHHQYQPHSKERAGKPPPPGKSGKYYYQLNSKKHHPYQPDPKMYDLQYQGGHKEAPSPTCPDLGAKSHPPDKWAQGAGAKGYLGAVKPLAGAAGAPGKGSEKGPPNGMMPAPKEAVTGNGIGGKMKIVKNKNKNGRIVIVMSKYMENGMQAVKIKSGEVAEGEARSPSHKKRAADERHPPADRTFKKAAGAEEKKVEAPPKRREEEVSGVSDPQPQDAGSRKLSPTKEAFGEQPLQLTTKPDLLAWDPARNTHPPSHHPHPHPHHHHHHHHHHHHAVGLNLSHVRKRCLSETHGEREPCKKRLTARSISTPTCLGGSPAAERPADLPPAAALPQPEVILLDSDLDEPIDLRCVKTRSEAGEPPSSLQVKPETPASAAVAVAAAAAPTTTAEKPPAEAQDEPAESLSEFKPFFGNIIITDVTANCLTVTFKEYVTV
B2: KDM2B (protein, UniProt Q8NHM5 1-1336)
chain: MAGPQMGGSAEDHPPRKRHAAEKQKKKTVIYTKCFEFESATQRPIDRQRYDENEDLSDVEEIVSVRGFSLEEKLRSQLYQGDFVHAMEGKDFNYEYVQREALRVPLIFREKDGLGIKMPDPDFTVRDVKLLVGSRRLVDVMDVNTQKGTEMSMSQFVRYYETPEAQRDKLYNVISLEFSHTKLEHLVKRPTVVDLVDWVDNMWPQHLKEKQTEATNAIAEMKYPKVKKYCLMSVKGCFTDFHIDFGGTSVWYHVFRGGKIFWLIPPTLHNLALYEEWVLSGKQSDIFLGDRVERCQRIELKQGYTFFIPSGWIHAVYTPVDSLVFGGNILHSFNVPMQLRIYEIEDRTRVQPKFRYPFYYEMCWYVLERYVYCVTQRSHLTQEYQRESMLIDAPRKPSIDGFSSDSWLEMEEEACDQQPQEEEEKDEEGEGRDRAPKPPTDGSTSPTSTPSEDQEALGKKPKAPALRFLKRTLSNESEESVKSTTLAVDYPKTPTGSPATEVSAKWTHLTEFELKGLKALVEKLESLPENKKCVPEGIEDPQALLEGVKNVLKEHADDDPSLAITGVPVVTWPKKTPKNRAVGRPKGKLGPASAVKLAANRTTAGARRRRTRCRKCEACLRTECGECHFCKDMKKFGGPGRMKQSCIMRQCIAPVLPHTAVCLVCGEAGKEDTVEEEEGKFNLMLMECSICNEIIHPGCLKIKESEGVVNDELPNCWECPKCNHAGKTGKQKRGPGFKYASNLPGSLLKEQKMNRDNKEGQEPAKRRSECEEAPRRRSDEHSKKVPPDGLLRRKSDDVHLRKKRKYEKPQELSGRKRASSLQTSPGSSSHLSPRPPLGSSLSPWWRSSLTYFQQQLKPGKEDKLFRKKRRSWKNAEDRMALANKPLRRFKQEPEDELPEAPPKTRESDHSRSSSPTAGPSTEGAEGPEEKKKVKMRRKRRLPNKELSRELSKELNHEIQRTENSLANENQQPIKSEPESEGEEPKRPPGICERPHRFSKGLNGTPRELRHQLGPSLRSPPRVISRPPPSVSPPKCIQMERHVIRPPPISPPPDSLPLDDGAAHVMHREVWMAVFSYLSHQDLCVCMRVCRTWNRWCCDKRLWTRIDLNHCKSITPLMLSGIIRRQPVSLDLSWTNISKKQLSWLINRLPGLRDLVLSGCSWIAVSALCSSSCPLLRTLDVQWVEGLKDAQMRDLLSPPTDNRPGQMDNRSKLRNIVELRLAGLDITDASLRLIIRHMPLLSKLHLSYCNHVTDQSINLLTAVGTTTRDSLTEINLSDCNKVTDQCLSFFKRCGNICHIDLRYCKQVTKEGCEQFIAEMSVSVQFGQVEEKLLQKLS
B3: PHC1 (protein, UniProt P78364 1-1004)
chain: METESEQNSNSTNGSSSSGGSSRPQIAQMSLYERQAVQALQALQRQPNAAQYFHQFMLQQQLSNAQLHSLAAVQQATIAASRQASSPNTSTTQQQTTTTQASINLATTSAAQLISRSQSVSSPSATTLTQSVLLGNTTSPPLNQSQAQMYLRPQLGNLLQVNRTLGRNVPLASQLILMPNGAVAAVQQEVPSAQSPGVHADADQVQNLAVRNQQASAQGPQMQGSTQKAIPPGASPVSSLSQASSQALAVAQASSGATNQSLNLSQAGGGSGNSIPGSMGPGGGGQAHGGLGQLPSSGMGGGSCPRKGTGVVQPLPAAQTVTVSQGSQTEAESAAAKKAEADGSGQQNVGMNLTRTATPAPSQTLISSATYTQIQPHSLIQQQQQIHLQQKQVVIQQQIAIHHQQQFQHRQSQLLHTATHLQLAQQQQQQQQQQQQQQQPQATTLTAPQPPQVPPTQQVPPSQSQQQAQTLVVQPMLQSSPLSLPPDAAPKPPIPIQSKPPVAPIKPPQLGAAKMSAAQQPPPHIPVQVVGTRQPGTAQAQALGLAQLAAAVPTSRGMPGTVQSGQAHLASSPPSSQAPGALQECPPTLAPGMTLAPVQGTAHVVKGGATTSSPVVAQVPAAFYMQSVHLPGKPQTLAVKRKADSEEERDDVSTLGSMLPAKASPVAESPKVMDEKSSLGEKAESVANVNANTPSSELVALTPAPSVPPPTLAMVSRQMGDSKPPQAIVKPQILTHIIEGFVIQEGAEPFPVGCSQLLKESEKPLQTGLPTGLTENQSGGPLGVDSPSAELDKKANLLKCEYCGKYAPAEQFRGSKRFCSMTCAKRYNVSCSHQFRLKRKKMKEFQEANYARVRRRGPRRSSSDIARAKIQGKCHRGQEDSSRGSDNSSYDEALSPTSPGPLSVRAGHGERDLGNPNTAPPTPELHGINPVFLSSNPSRWSVEEVYEFIASLQGCQEIAEEFRSQEIDGQALLLLKEEHLMSAMNIKLGPALKICAKINVLKET
B4: PHC2 (protein, UniProt Q8IXK0 1-858)
chain: MENELPVPHTSSSACATSSTSGASSSSGCNNSSSGGSGRPTGPQISVYSGIPDRQTVQVIQQALHRQPSTAAQYLQQMYAAQQQHLMLQTAALQQQHLSSAQLQSLAAVQQASLVSNRQGSTSGSNVSAQAPAQSSSINLAASPAAAQLLNRAQSVNSAAASGIAQQAVLLGNTSSPALTASQAQMYLRAQMLIFTPTATVATVQPELGTGSPARPPTPAQVQNLTLRTQQTPAAAASGPTPTQPVLPSLALKPTPGGSQPLPTPAQSRNTAQASPAGAKPGIADSVMEPHKKGDGNSSVPGSMEGRAGLSRTVPAVAAHPLIAPAYAQLQPHQLLPQPSSKHLQPQFVIQQQPQPQQQQPPPQQSRPVLQAEPHPQLASVSPSVALQPSSEAHAMPLGPVTPALPLQCPTANLHKPGGSQQCHPPTPDTGPQNGHPEGVPHTPQRRFQHTSAVILQLQPASPPQQCVPDDWKEVAPGEKSVPETRSGPSPHQQAIVTAMPGGLPVPTSPNIQPSPAHETGQGIVHALTDLSSPGMTSGNGNSASSIAGTAPQNGENKPPQAIVKPQILTHVIEGFVIQEGAEPFPVGRSSLLVGNLKKKYAQGFLPEKLPQQDHTTTTDSEMEEPYLQESKEEGAPLKLKCELCGRVDFAYKFKRSKRFCSMACAKRYNVGCTKRVGLFHSDRSKLQKAGAATHNRRRASKASLPPLTKDTKKQPTGTVPLSVTAALQLTHSQEDSSRCSDNSSYEEPLSPISASSSTSRRRQGQRDLELPDMHMRDLVGMGHHFLPSEPTKWNVEDVYEFIRSLPGCQEIAEEFRAQEIDGQALLLLKEDHLMSAMNIKLGPALKIYARISMLKDS

Legend:
Assay in all cases: affinity purification with mass spectrometry; endogenous proteins; NT2 nuclear lysates immunoprecipitated with α-PCGF1, α-PCGF2, α-PCGF4/BMI1 or α-RNF2/RING1B, rabbit IgG as negative control; trypsin digestion on beads, label-free quantitation (MaxQuant), FDR 1%, ≥1.5-fold change
[1] = target: PCGF1 (human (endogenous in NT2)) (UniProt Q9BSM1)
[2] = target: T1, PCGF2 (human (endogenous in NT2))
[3] = target: PCGF4/BMI1 (human (endogenous in NT2)) (UniProt P35226)

Molecule	binding [1]	binding [2]	binding [3]
BCOR (from UniProt Q6W2J9 1-1755)	binds	no binding	no binding
CBX2 (from UniProt Q14781 1-532)			binds
CBX8 (from UniProt Q9HC52 1-389)		binds	
CSNK2B (from UniProt P67870 1-215)	binds	binds	binds
RBBP4 (from UniProt Q09028 1-425)		binds	binds
RING1A (from UniProt Q06587 1-406)	binds	binds	binds
RNF2/RING1B (from UniProt Q99496 1-336)		binds	
SCMH1 (from UniProt Q96GD3 1-660)		binds	binds
SCML2 (from UniProt Q9UQR0 1-700)		binds	binds
USP7 (from UniProt Q93009 1-1102)	binds	binds	binds
B1		binds	binds
B2	binds	binds	binds
B3		binds	binds
B4		binds	binds
